Laboratory results from patent US11998611B2 (priority 2017, dated 2024).

Experiment: general procedure: solution-phase peptide synthesis; EDC/HOBt; DSC/DIEA
Conditions: for step yield: late stage modification step

Question: With “DBCO-glutaryl-Val-PEG24Lys-PABA-C52 Benzylic Amine” as the substance, how does the conjugation yield (conjugation step) read?
Answer: 36%

Question: For “Glutaryl-Val-sulfoPEG4Lys-C52 Benzylic Amine”, which step yield is on record?
Answer: 50%

Question: For “Glutaryl-Val-PEG24Lys-PABA-C52 Benzylic Amine”, which step yield is on record?
Answer: 61%
